Source: ChEMBL document CHEMBL3988442, “University of Dundee, Small-Polar-MMV Screening Library” (2021).

Mtb glucose medium: 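Whole-cell growth test on Mycobacterium tuberculosis, read after 3 days in glucose-containing 7H9 medium; the read-out is not stated. Concentration: 50 µM. Direction is inferred from retests: higher values go with more growth inhibition. Of about 69,000 compounds tested this way, about 760 (1.1%) reached 50% or more in at least one test.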
Mtb cholesterol medium: 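Phenotypic screen: M. tuberculosis growth, cholesterol and DPPC medium, 4 days; the read-out is not stated. Tested at 50 µM. Direction is inferred from retests: higher values go with more growth inhibition. Of about 69,000 compounds tested this way, about 370 (0.54%) reached 50% or more in at least one test.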

Results are given as percent effect.
The controls that fix the scale are not given in the record; negative values are as filed.
The compounds are a random part of those screened.
Two or more numbers in one place are separate tests of the same structure; such repeats can differ widely.

structure,Mtb glucose medium,Mtb cholesterol medium
CC(C)c1noc(C(C)N2CCN(CCN3CCCC3=O)CC2)n1 (centres undefined),49.91%,21.85%
Cn1ccc(C(=O)NCc2cccc(NC(=O)C3CCC3)c2)cc1=O,7.365%,-6.259%
Cc1ncc(CN(Cc2ccccn2)Cc2ccccc2Cl)n1C.O=C(O)CC(O)(CC(=O)O)C(=O)O,39.44%,16.76%
O=C(O)C(F)(F)F.O=C(O)C(F)(F)F.[H][C@@]12CCN(CC3CC3)[C@@]1([H])CCN2Cc1ccc2c(c1)OCO2,-16.09%,-2.707%
CC[C@@]1(O)CCN(C(=O)CCc2cnn(C)c2)C[C@H]1O,-20.72%,-10.29%
CCCNC(=O)C1CCN(Cc2csc(C(C)C)n2)CC1,-25.45%,11.34%
Cc1ccc(N2C[C@H](O)[C@@H](N3CCN(c4ccccn4)CC3)C2)nn1,-27.55% & 10.39%,-4.849%
CN(C)CC(C)(C)Cn1cnc(-c2ccccc2)c1-c1ccncc1,-0.6745% & 12.82%,27.65%
CC(=O)N1CCN(C(C)c2ccc(Br)cc2)CC1 (centres undefined),-8.14% & 0.9993%,-12.02%
c1cc(CN2CCCCC2)cc(NCc2cc[nH]n2)c1,-30.81%,-17.79%
CCCc1nc(N2CCN(Cc3ccccn3)CC2)c2cnn(C)c2n1,15.66%,16.98%
Nc1c(N2CCCC2)ncnc1N1CCOCC1,-29.39%,-29.76%
CC(=O)N1CCN(CCCSCc2ccccc2)CC1,-45.33%,-5.627%
CC[C@H]1NCCC[C@]12CCC(=O)N2Cc1ccncc1,16%,24.82%
[H][C@@]12CS(=O)(=O)C[C@]1([H])N(Cc1ccc(F)cc1)CCN2C(=O)C1CCC1,-19.21% & -4.846%,-22.11%
CC(C)[C@H](NC(=O)N1CCC(Cc2ccccc2)CC1)C(=O)O,-5.201%,-17.13%
O=C(O)C(F)(F)F.[H][C@@]12CCC(=O)N(c3ccccc3)[C@]1([H])CCN2Cc1cnn(C)c1,-5.638%,-11.82%
Cc1cc(C)cc(OCCN(C)Cc2cscn2)c1,-1.511% & 1.29%,3.598%
Cc1ccc(CNCc2cccc(NC(=O)CCN3CCOCC3)c2)s1,-7.343%,-0.3269%
Cc1cc(Cl)ccc1NCc1cnn(C2CCS(=O)(=O)C2)c1 (centres undefined),2.903%,-10.46%
Fc1ccc(CN2CCCC(Cn3cncn3)C2)c2ncccc12 (centres undefined),-3.2%,-1.318%
Cc1csc(C2CCCCN2C(=O)COCc2nc(C)no2)n1 (centres undefined),-20.18%,-4.685%
CNC(=O)Cn1ccc2ccc(NC(=O)C(C)C)cc21,0.2603% & 29.39%,-4.654%
COc1c(C2CCCN2C(=O)c2ccoc2)c(C)nn1C (centres undefined),12.01%,-14.97% & -0.2037%
COc1ccc(CSc2nnc(N)n2C2CC2)cc1Cl,18.26%,-11.8%
CC(c1nc(C2CC2)no1)N(C)Cc1cccc(F)c1 (centres undefined),15.39%,-2.435%
COc1ccc(F)c(F)c1C(=O)N1C[C@@H](CN(C)CCO)[C@@H](CO)C1,-3.252%,-12.01% & -1.327%
[H][C@@]12CCN(S(C)(=O)=O)C[C@@]1([H])O[C@@H](c1ccnc(C)n1)C2,-19.29%,-3.621%
Cc1csc(C(=O)N2CCC(S(C)(=O)=O)C2)c1 (centres undefined),15.89%,-1.074%
Cc1nc(C(=O)N2CCC(Nc3cccnn3)CC2)cs1,-26.69%,31.06%
[H][C@@]12CN(C(=O)c3cnccn3)C[C@]1([H])C(=O)N(Cc1csc(C)n1)C2,5.145%,0.06612%
[H][C@]12CC[C@]([H])(CN(Cc3cc(=O)[nH]c(=O)[nH]3)C1)N(CC=C(C)C)C2,-10.77%,-30.97%
Cc1cc(C)c2c(c1)C(NCc1nnc3n1CCC3)CCCO2 (centres undefined),-13.2%,-20.33%
Cc1ccccc1[C@@H]1CN(CCCS(=O)(=O)N(C)C)C[C@H]1C(=O)O,-6.947% & 4.614%,4.769%
Cc1nnsc1CNC(=O)c1ccc2c(c1)nc(N1CCOCC1)n2C,-1.304%,-5.771%
Cc1cnn(CCNCc2ccc(C#N)cc2F)c1,0.1025%,-1.934%
Cl.Cl.OC(CN1CCN(Cc2cc(F)ccc2F)CC1)C1CC1 (centres undefined),4.704%,9.902%
CCn1ccnc1-c1nc2cc(S(=O)(=O)N3CCCC3)ccc2n1C,-6.894% & -1.922%,-13.09%
COC(=O)CNC(=O)CSCc1nc(O)c2cc(C)sc2n1,2.023%,-33.37% & 1.222%
O=C(O)C(F)(F)F.[H][C@@]12CCN(Cc3c(C)noc3C)C[C@]1(C(=O)NC1CCCC1)CCO2,-7.388%,-12.02%
c1ccc(CCCn2cc(-c3nc(CN4CCOCC4)no3)nn2)cc1,9.148%,5.414%
Cc1cc(C)n(CC(C)NC(=O)C2(c3ccccc3F)CC2)n1 (centres undefined),-14.26%,-8.196%
Cl.O=C1CC(NCc2cnc(N3CCCC3)nc2)CN1c1ccccc1 (centres undefined),7.993%,-0.5365%
CC(C#N)(NC(=O)COc1ccccc1Br)C1CC1 (centres undefined),-8.212% & -23.25%,12.58% & -1.473%
O=C(O)C(F)(F)F.O=C(O)C(F)(F)F.[H][C@]12CCN(C(=O)C3CC3)CC[C@@]1([H])S(=O)(=O)CCN2Cc1cccnc1,3.277%,1.06%
N#CCCNC(=O)CN1CCC(c2cc3ccccc3[nH]2)CC1,12.72% & -36.84%,-15.35%
CCOc1ccc(CNC(C)c2c(C)nn(C)c2C)cc1 (centres undefined),-22.86%,6.123%
CCOC1CCN(C(=O)c2c(Cl)c3ccccc3n2C)CC1,2.56%,-12.37%
[H][C@@]12CCCCCN(C)[C@@]1([H])[C@H](c1ccccc1)CN2C(=O)c1cccnc1,-12.5%,-11%
Cc1nc(CN(C)C2CCN(CC3CCCCC3)C2)no1 (centres undefined),19.74%,-4.835%
COCCc1nnc(NC(=O)CSCc2ccccc2)o1,-17.63%,-12.66%
FC(F)(F)c1cc(C2CCCN(Cc3ccncc3)C2)n[nH]1 (centres undefined),6.229% & 3.928%,5.985%
CCCNC(=O)CN1CCN(c2nc(CC)ns2)CC1,-4.762%,13.13%
O=C(NCCNc1ncccn1)NCCc1c(F)cccc1F,-2.847% & -7.199%,-24.45%
CC(c1cn2ccsc2n1)N1Cc2ncccc2C1=O (centres undefined),9.929%,1.893%
CCc1nnsc1C(=O)NCCc1nnc2n1CCC2,12.67%,-8.68%
Cc1nn(C2CCCCC2)c2nc(C(C)(C)CN3CCOCC3)[nH]c12,-3.772%,3.319%
O=C(O)c1cncc(Cc2cccc(F)c2)c1,4.22%,2.497%
COc1ccc(CN2CCn3c(CNS(C)(=O)=O)nnc3C2)cc1,-13.28%,-23.44%
CC(C)n1cnc2ccc(NC(=O)CCCn3cccn3)cc2c1=O,-36.09%,-22.59%
Cc1nccn1C1CCCN(C(=O)c2cc3c(F)cccc3[nH]2)C1 (centres undefined),0.1673%,9.99%
COCCn1cnc2c(F)cc(Br)cc2c1=O,21.24%,-7.593% & 10.45%
COc1ccc(NC(=O)c2cccc(OC)c2OC)cc1,22.63%,10.33%
O=C(O)C(F)(F)F.O=C(O)C(F)(F)F.[H][C@@]12CCN(Cc3cccnc3)[C@]1([H])CC[C@H](COCC1CC1)O2,15.04%,-7.786%
CC(=O)Nc1cccc(CN2CCN(C3=NCC(C)(C)S3)CC2)c1,24.89%,2.614%
Cc1ccc(N2CCC3(CC2)COCCN(c2nccs2)C3)nn1.O=C(O)C(F)(F)F.O=C(O)C(F)(F)F,6.12%,-6.972%
CN(C)C(=O)CN1CCC2(CCCN(c3ncc(F)cn3)C2)C1=O (centres undefined),-7.633% & -38.36%,-28.14%
CCCOC1CCCN(c2nc(CC)nc3c2cnn3C)C1 (centres undefined),11%,9.721%
CN(Cc1noc(C2CC2)n1)C1CCN(CCn2cc(C#N)cn2)C1 (centres undefined),-16.05%,-8.22%
Cc1cccc(CNC(=O)Nc2ccc3c(c2)CCCC(=O)N3)c1,0.951% & -14.48%,-5.785%
Cn1nc2c(cc1=O)CN(Cc1coc(-c3ccccc3)n1)CC2,0.02513%,-10.87%
O=C(C1CC1)N1CCC(O)(CN2CCN(c3ccccc3)CC2)C1 (centres undefined),20.09%,11.81%
COc1ccc(CNCc2c(C)nn(C)c2N2CCOCC2)cc1,21.15%,13.07%
CN(Cc1cccc(OC(F)(F)F)c1)C(=O)Cc1ccon1,-7.681% & 15.88%,9.262%
O=C(O)C(F)(F)F.[H][C@]12CCN(C(=O)c3ccc4ncccc4c3)C[C@@]1([H])OCCN(C(C)=O)C2,26.8%,5.307%

8 of the entries, repeated:

- Cc1ncc(CN(Cc2ccccn2)Cc2ccccc2Cl)n1C.O=C(O)CC(O)(CC(=O)O)C(=O)O : Mtb glucose medium: 39.44%; Mtb cholesterol medium: 16.76%
- Cc1ccc(N2C[C@H](O)[C@@H](N3CCN(c4ccccn4)CC3)C2)nn1 : Mtb glucose medium: -27.55% & 10.39%; Mtb cholesterol medium: -4.849%
- CCOC1CCN(C(=O)c2c(Cl)c3ccccc3n2C)CC1 : Mtb glucose medium: 2.56%; Mtb cholesterol medium: -12.37%
- COc1ccc(NC(=O)c2cccc(OC)c2OC)cc1 : Mtb glucose medium: 22.63%; Mtb cholesterol medium: 10.33%
- CC(C)[C@H](NC(=O)N1CCC(Cc2ccccc2)CC1)C(=O)O : Mtb glucose medium: -5.201%; Mtb cholesterol medium: -17.13%
- [H][C@@]12CCCCCN(C)[C@@]1([H])[C@H](c1ccccc1)CN2C(=O)c1cccnc1 : Mtb glucose medium: -12.5%; Mtb cholesterol medium: -11%
- Cn1ccc(C(=O)NCc2cccc(NC(=O)C3CCC3)c2)cc1=O : Mtb glucose medium: 7.365%; Mtb cholesterol medium: -6.259%
- COCCn1cnc2c(F)cc(Br)cc2c1=O : Mtb glucose medium: 21.24%; Mtb cholesterol medium: -7.593% & 10.45%